PubChem BioAssay AID652243 | Drosophila RNAi Screening Center, 2013
Purpose: 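Knock-downs that decrease or increase androgen receptor reporter signal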 (primary screen). Cell system: Drosophila S2R+ cells. Knock-down reagent: long dsRNA against Drosophila genes. Timing: 72 h (48 h, then 24 h hormone). Treatment: synthetic androgen R1881 at 10 nM for 24 h. Read-out: 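Firefly light from an androgen-responsive reporter and Renilla control light per well, raw and unnormalised, for each of two replicates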. Reading the numbers: firefly reporter light: higher = more light from androgen-responsive reporter; Renilla control light: higher = more constitutive control signal (cell number, transfection). Active means: 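Hit when the log firefly-to-Renilla ratio dropped or increased by a fixed fold versus the mean of GFP or LacZ controls across duplicate plates; lowering cut given as 1.5 and as 3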. Calls: active = hit: reporter lowered or raised; inactive = no hit.
In all, the deposit lists about 24,000 reagents; below is a random part of those that have a named target and a result. In the full data, 246 (1%) got an active call. 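Plates not normalised; calls are printed but the firefly/Renilla ratio behind them is not deposited; fold cut for lowering reported inconsistently.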 The raw values are shown without normalisation. A plus sign joins genes that one reagent is predicted to hit. Not stated in the record: the amount of reagent.

| target | DRSC id | firefly reporter light, replicate 1 | firefly reporter light, replicate 2 | Renilla control light, replicate 1 | Renilla control light, replicate 2 | Outcome |
| --- | --- | --- | --- | --- | --- | --- |
| CG3163 | DRSC04341 | 7.29e5 | 8.24e5 | 1.13e6 | 1.05e6 | inactive |
| CG3163 | DRSC28242 | 2.89e5 | 4.80e5 | 8.38e5 | 1.29e6 | inactive |
| CG1827 | DRSC06719 | 6.05e5 | 6.23e5 | 1.58e6 | 1.38e6 | inactive |
| aay (astray) | DRSC11320 | 8.05e5 | 7.63e5 | 9.98e5 | 1.02e6 | inactive |
| aay (astray) | DRSC36744 | – | – | – | – | inactive |
| Ercc1 | DRSC07424 | 9.15e5 | 7.75e5 | 1.46e6 | 1.50e6 | inactive |
| CG32447 | DRSC11732 | 88650 | 1.01e5 | 1.16e6 | 8.12e5 | inactive |
| CG32447 | DRSC11805 | 2.09e5 | 2.79e5 | 3.22e6 | 2.34e6 | inactive |
| CG9377 | DRSC03217 | 3.05e5 | 6.20e5 | 1.10e6 | 1.96e6 | inactive |
| alien + CG17906 | DRSC02641 | 2.32e5 | 2.22e5 | 1.83e6 | 1.72e6 | inactive |
| CG15461 | DRSC20532 | 1.52e5 | 1.34e5 | 4.09e5 | 1.89e5 | inactive |
| CG34130 | DRSC38651 | 7.41e5 | 7.62e5 | 2.03e6 | 2.48e6 | inactive |
| RpS15 (Ribosomal protein S15) | DRSC07151 | 1.34e5 | 1.90e5 | 1.09e6 | 1.09e6 | inactive |
| RpS15 (Ribosomal protein S15) | DRSC23462 | 2.28e5 | 98744 | 5.62e5 | 2.78e5 | inactive |
| hpRNA:CR18854 + IP3K1 | DRSC02218 | 7.61e5 | 9.61e5 | 1.43e6 | 1.81e6 | inactive |
| scb (scab) | DRSC05542 | 1.46e5 | 2.04e5 | 4.12e5 | 4.25e5 | inactive |
| scb (scab) | DRSC07678 | 79148 | 57246 | 1.38e6 | 1.38e6 | inactive |
| CG5726 | DRSC06946 | 3.13e5 | 3.38e5 | 1.40e6 | 1.24e6 | inactive |
| CG5726 | DRSC25145 | 6.28e5 | 6.96e5 | 7.81e5 | 8.87e5 | inactive |
| Lamtor4 (Late endosomal/lysosomal adaptor, MAPK and MTOR activator 4) | DRSC08436 | 1.55e5 | 1.34e5 | 1.77e6 | 2.24e6 | inactive |
| CG13032 | DRSC09912 | 3.12e5 | 2.19e5 | 2.23e6 | 1.73e6 | inactive |
| Gld2 (GLD2 poly(A) polymerase) | DRSC23037 | 8.78e5 | 1.15e6 | 1.92e6 | 2.17e6 | inactive |
| Gld2 (GLD2 poly(A) polymerase) | DRSC27759 | 3.45e5 | 2.02e5 | 4.87e5 | 5.58e5 | inactive |
| CG15728 | DRSC19694 | 4.51e5 | 4.93e5 | 3.00e6 | 3.02e6 | inactive |
| CG15728 | DRSC22868 | 3.58e5 | 7.80e5 | 1.09e6 | 1.66e6 | inactive |
| CG15728 | DRSC28662 | 3.64e5 | 3.31e5 | 1.43e6 | 1.18e6 | inactive |

Already shown: entries from further up.
| target | DRSC id | firefly reporter light, replicate 1 | firefly reporter light, replicate 2 | Renilla control light, replicate 1 | Renilla control light, replicate 2 | Outcome |
| --- | --- | --- | --- | --- | --- | --- |
| CG32447 | DRSC11732 | 88650 | 1.01e5 | 1.16e6 | 8.12e5 | inactive |
| CG32447 | DRSC11805 | 2.09e5 | 2.79e5 | 3.22e6 | 2.34e6 | inactive |
| CG9377 | DRSC03217 | 3.05e5 | 6.20e5 | 1.10e6 | 1.96e6 | inactive |
| alien + CG17906 | DRSC02641 | 2.32e5 | 2.22e5 | 1.83e6 | 1.72e6 | inactive |
